This passage reports binding results from PMC5464861.

The chains behind the UniProt entries cited, without tags or fusion partners. Where a name states a change or a piece, a line headed by the entry shows the natural chain unless it says otherwise.
UniProt O00571: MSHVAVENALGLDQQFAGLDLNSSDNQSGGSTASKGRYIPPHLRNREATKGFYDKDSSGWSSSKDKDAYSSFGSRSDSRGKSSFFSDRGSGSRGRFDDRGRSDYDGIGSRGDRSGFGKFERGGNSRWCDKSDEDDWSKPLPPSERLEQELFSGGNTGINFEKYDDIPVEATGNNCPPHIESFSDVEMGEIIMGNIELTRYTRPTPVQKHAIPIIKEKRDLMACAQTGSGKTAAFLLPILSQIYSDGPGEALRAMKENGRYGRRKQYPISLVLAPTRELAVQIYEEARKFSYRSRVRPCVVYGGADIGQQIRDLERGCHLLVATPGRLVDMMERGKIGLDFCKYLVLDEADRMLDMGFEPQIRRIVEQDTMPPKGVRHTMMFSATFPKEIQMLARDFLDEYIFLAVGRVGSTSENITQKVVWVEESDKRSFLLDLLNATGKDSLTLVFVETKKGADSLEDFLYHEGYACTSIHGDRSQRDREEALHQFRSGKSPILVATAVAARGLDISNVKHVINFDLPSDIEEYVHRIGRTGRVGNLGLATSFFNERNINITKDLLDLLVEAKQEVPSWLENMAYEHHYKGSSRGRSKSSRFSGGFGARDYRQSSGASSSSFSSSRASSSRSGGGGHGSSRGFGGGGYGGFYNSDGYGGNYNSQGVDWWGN
UniProt P67775: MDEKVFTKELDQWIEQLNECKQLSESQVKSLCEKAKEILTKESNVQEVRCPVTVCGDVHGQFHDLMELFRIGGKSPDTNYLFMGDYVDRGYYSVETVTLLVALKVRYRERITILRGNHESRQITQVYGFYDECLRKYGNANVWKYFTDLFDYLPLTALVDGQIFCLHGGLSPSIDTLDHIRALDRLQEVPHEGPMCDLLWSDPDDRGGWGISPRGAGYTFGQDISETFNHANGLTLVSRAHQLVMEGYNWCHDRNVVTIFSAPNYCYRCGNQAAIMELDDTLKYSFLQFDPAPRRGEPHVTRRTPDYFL

Where two headings read alike, the source gives them in different places. These are yes or no findings as the source states them, for the method shown. Binding seen in cells or lysates may run through a third protein. Binding calls can cover weak binding; strength is not graded here.

Test [1] addresses Flag-tagged DDX3 (human (cDNA from HeLa cells)) (UniProt O00571). The experiment in a line: co-IP; HeLa, HEK-293T and HepG2 cells co-transfected with HA-tagged PP2A-C and Flag-tagged DDX3 for 48 h; lysate precipitated with anti-Flag antibody, blot with anti-HA or anti-Flag.
In test [2] the target is endogenous PP2A-C subunit (human (endogenous in HeLa)) (UniProt P67775). Description: co-IP; endogenous proteins in HeLa cells transfected with siNC or siDDX3 for 48 h; precipitated with anti-PP2A-C or rabbit IgG, blot for IKK-β.
The target of test [3] is endogenous DDX3 (human (endogenous in HeLa)) (UniProt O00571). The experiment in a line: co-IP; endogenous proteins; lysate (50 mM Tris-HCl pH 7.4, 150 mM NaCl, 1 mM EDTA, 1% NP-40) precipitated with DDX3 mouse antibody or mouse IgG on protein G agarose at 4°C, blot for PP2A-C; HeLa, by the text also HEK-293T and HepG2.
In test [4] the target is endogenous PP2A-C subunit (human (endogenous in HeLa)) (UniProt P67775). The experiment in a line: co-IP; endogenous proteins in HeLa cells transfected with siNC or siDDX3 for 48 h; precipitated with anti-PP2A-C or rabbit IgG, blot for IKK-β. The source holds these as a separate data set.

With “HA-tagged PP2A-C subunit (from UniProt P67775)”, in test [1], the binding result is recorded as “binds”.

With “endogenous DDX3 (from UniProt O00571 1-662)”, the binding result in test [2] is “binds”.

For “endogenous PP2A-C subunit (from UniProt P67775)”, the binding result in test [3] was “binds”.

B1: endogenous IKK-β (protein, UniProt O14920 1-756)
chain: MSWSPSLTTQTCGAWEMKERLGTGGFGNVIRWHNQETGEQIAIKQCRQELSPRNRERWCLEIQIMRRLTHPNVVAARDVPEGMQNLAPNDLPLLAMEYCQGGDLRKYLNQFENCCGLREGAILTLLSDIASALRYLHENRIIHRDLKPENIVLQQGEQRLIHKIIDLGYAKELDQGSLCTSFVGTLQYLAPELLEQQKYTVTVDYWSFGTLAFECITGFRPFLPNWQPVQWHSKVRQKSEVDIVVSEDLNGTVKFSSSLPYPNNLNSVLAERLEKWLQLMLMWHPRQRGTDPTYGPNGCFKALDDILNLKLVHILNMVTGTIHTYPVTEDESLQSLKARIQQDTGIPEEDQELLQEAGLALIPDKPATQCISDGKLNEGHTLDMDLVFLFDNSKITYETQISPRPQPESVSCILQEPKRNLAFFQLRKVWGQVWHSIQTLKEDCNRLQQGQRAAMMNLLRNNSCLSKMKNSMASMSQQLKAKLDFFKTSIQIDLEKYSEQTEFGITSDKLLLAWREMEQAVELCGRENEVKLLVERMMALQTDIVDLQRSPMGRKQGGTLDDLEEQARELYRRLREKPRDQRTEGDSQEMVRLLLQAIQSFEKKVRVIYTQLSKTVVCKQKALELLPKVEEVVSLMNEDEKTVVRLQEKRQKELWNLLKIACSKVRGPVSGSPDSMNASRLSQPGQLMSQPSTASNSLPEPAKKSEELVAEAHNLCTLLENAIQDTVREQDQSFTALDWSWLQTEEEEHSCLEQAS
On to B1, for which the binding result in test [4] is on record as “binds”.
